Results on twelve compounds are retold here after PubChem BioAssay AID330 (DTP/NCI, 2004).

The list shows only some results of the screen, not a fair sample: it covers a few groups of compounds. Not every dose and run of a compound is shown. T/C: endpoint of the treated group in % of that of the vehicle group. Some doses have a count of surviving animals in place of a T/C: the source holds a T/C of zero for them, seemingly a mark for toxic or unscored doses. Some survivor counts are full or nearly so, which does not show that the dose was tolerated: the source hardly ever lists a survival T/C far under the control, and the zero likely stands for such cases as well. Survivors were counted at the toxicity check, usually on the fifth day, unless a day is given; later deaths do not show. Schedules are NCI's codes, read here as Q, the interval in days (D) or hours (H), X, the number of doses. Some complexes appear as separate parts, the way the source draws them; their charges need not add up. For survival time, this PubChem deposit counts one and a half times the control or more as active, and values a quarter to a half above the control carry no call in these data; other NCI protocols may use other cut-offs. Some doses were run more than once; the values are given in rising order. Some entries show no survivor count and are marked so; the dose need not have been tolerated. Some T/C values carry the count of animals alive at the toxicity check (mostly the fifth day); without a count or a note in brackets, all were alive then.

In this experiment the test system is P388 leukemia ip, CD2F1 mice, survival T/C. As to the kind of experiment: NCI In Vivo Anticancer Drug Screen. Data for tumor model P388 Leukemia (intraperitoneal) in CD2F1 (CDF1) mice. The settings on record: T/C endpoint: median survival time, higher T/C = longer survival.
The mark [1] stands for this setting: dose: 100.0 mg/kg/injection, schedule: Q04DX003 (ip), vehicle: saline.
The mark [2] stands for this setting: dose: 200.0 mg/kg/injection, schedule: Q04DX003 (ip), vehicle: saline.
Where [3] appears, read: dose: 25.0 mg/kg/injection, schedule: Q04DX003 (ip), vehicle: Klucel (hydroxypropylcellulose) (HPC).
Where [4] appears, read: dose: 50.0 mg/kg/injection, schedule: Q04DX003 (ip), vehicle: Klucel (hydroxypropylcellulose) (HPC).
The mark [5] stands for this setting: dose: 100.0 mg/kg/injection, schedule: Q01DX009 (ip), vehicle: saline.
Setting [6] is: dose: 400.0 mg/kg/injection, schedule: Q01DX009 (ip), vehicle: saline.

Regarding `CN1P(F)(F)(F)N(CCl)P1(F)(F)F`, the T/C is 101 % of control (dose: 6.25 mg/kg/injection, schedule: Q01DX005 (ip), vehicle: saline); 97 % of control (dose: 12.5 mg/kg/injection, schedule: Q01DX005 (ip), vehicle: saline); 104 % of control (dose: 25.0 mg/kg/injection, schedule: Q01DX005 (ip), vehicle: saline). Besides, the survivor count reads like this: (dose: 50.0 mg/kg/injection, schedule: Q01DX005 (ip), vehicle: saline) 0 of 5; (dose: 100.0 mg/kg/injection, schedule: Q01DX005 (ip), vehicle: saline) 0 of 5; (dose: 200.0 mg/kg/injection, schedule: Q01DX005 (ip), vehicle: saline) 0 of 5.

Consider `O=[N+]([O-])C(F)(CNC(=S)NCC(F)([N+](=O)[O-])[N+](=O)[O-])[N+](=O)[O-]`, for which the T/C under setting [1] was 98 % of control; the T/C under setting [2] was 98 % of control; the T/C (dose: 400.0 mg/kg/injection, schedule: Q04DX003 (ip), vehicle: saline) is 104 % of control.

Consider `O=[N+]([O-])c1cc([N+](=O)[O-])c(O)c([N+](=O)[O-])c1.c1ccc(CN2CCCCC2)cc1`, for which the T/C is, setting by setting: (dose: 50.0 mg/kg/injection, schedule: Q01DX005 (ip), vehicle: saline with Tween-80) 101 % of control; (dose: 100.0 mg/kg/injection, schedule: Q01DX005 (ip), vehicle: saline with Tween-80) 106 % of control; (dose: 200.0 mg/kg/injection, schedule: Q01DX005 (ip), vehicle: saline with Tween-80) 94 % of control [4 of 6 alive].

Take `C1=C[N-]c2c3c(ccc2=C1)=CC=C[N-]3.C1=C[N-]c2c3c(ccc2=C1)=CC=C[N-]3.F[P-](F)(F)(F)(F)F.[Cu+2]`: the T/C by setting is: (dose: 3.13 mg/kg/injection, schedule: Q04DX003 (ip), vehicle: Klucel (hydroxypropylcellulose) (HPC)) 96 % of control; (dose: 6.25 mg/kg/injection, schedule: Q04DX003 (ip), vehicle: Klucel (hydroxypropylcellulose) (HPC)) 99 % of control; (dose: 12.5 mg/kg/injection, schedule: Q04DX003 (ip), vehicle: Klucel (hydroxypropylcellulose) (HPC)) 101 and 106 % of control. Moreover, the survivor count under setting [3] was 6 of 6 and the survivor count under setting [4] was 0 of 6.

`CN(C)c1nc(N(C)C)nc(N(CCCl)CCCl)n1`: the T/C (dose: 25.0 mg/kg/injection, schedule: Q04DX002 (ip), vehicle: saline) is 102 % of control and the T/C (dose: 50.0 mg/kg/injection, schedule: Q04DX002 (ip), vehicle: saline) was 106 % of control. Besides, the survivor count (dose: 100.0 mg/kg/injection, schedule: Q04DX002 (ip), vehicle: saline) is 0 of 6.

With `O=P1(Cl)Oc2ccccc2-c2ccccc2O1`, the T/C by setting is: (dose: 25.0 mg/kg/injection, schedule: Q01DX009 (ip), vehicle: saline) 88 % of control; (dose: 50.0 mg/kg/injection, schedule: Q01DX009 (ip), vehicle: saline) 89 % of control; under setting [5], 93 % of control.

As for `O=C(CI)Nc1ccc(N(CCCl)CCCl)cc1`, the T/C is 117 % of control (dose: 50.0 mg/kg/injection, schedule: Q01DX001 (ip), vehicle: Klucel (hydroxypropylcellulose) (HPC)); 116 % of control (dose: 100.0 mg/kg/injection, schedule: Q01DX001 (ip), vehicle: Klucel (hydroxypropylcellulose) (HPC)); 115 % of control (dose: 200.0 mg/kg/injection, schedule: Q01DX001 (ip), vehicle: Klucel (hydroxypropylcellulose) (HPC)).

Regarding `CC(C)OP(C)(=O)OC(C)C.CC(C)OP(C)(=O)OC(C)C.CC(C)OP(C)(=O)OC(C)C.CC(C)OP(C)(=O)OC(C)C.[Ni+2].[O-][Cl+3]([O-])([O-])O`, the T/C (dose: 50.0 mg/kg/injection, schedule: Q04DX003 (ip), vehicle: saline) was 109 % of control [survivor count not shown]; the T/C under setting [1] was 114 % of control [survivor count not shown]; the T/C under setting [2] is 94 % of control [survivor count not shown].

On to `CN(N)P(=O)(Cl)C(Cl)(Cl)Cl` (stereo not drawn), for which the T/C runs as follows: (dose: 60.0 mg/kg/injection, schedule: Q01DX005 (ip), vehicle: saline) 98 % of control; (dose: 120.0 mg/kg/injection, schedule: Q01DX005 (ip), vehicle: saline) 103 % of control. For the same compound, the survivor count (dose: 240.0 mg/kg/injection, schedule: Q01DX005 (ip), vehicle: saline) is reported as 0 of 6.

`CC(C)OP(C)(=O)O.[Ce]`: the T/C was 99 % of control [survivor count not shown] (dose: 12.5 mg/kg/injection, schedule: Q01DX009 (ip), vehicle: saline with Tween-80); 92 % of control [survivor count not shown] (dose: 25.0 mg/kg/injection, schedule: Q01DX009 (ip), vehicle: saline with Tween-80); 89 % of control [survivor count not shown] (dose: 50.0 mg/kg/injection, schedule: Q01DX009 (ip), vehicle: saline with Tween-80); 104 % of control [survivor count not shown] (dose: 100.0 mg/kg/injection, schedule: Q01DX009 (ip), vehicle: saline with Tween-80).

Take `NNc1nc(NN)nc(NN)n1`: the T/C by setting is: under setting [3], 95 and 101 % of control; under setting [4], 93 and 129 % of control; (dose: 100.0 mg/kg/injection, schedule: Q04DX003 (ip), vehicle: Klucel (hydroxypropylcellulose) (HPC)) 93 and 101 % of control.

As to `ClCCN1OC12CCCCC2` (stereo not drawn), the T/C under setting [5] was 123 and 134 % of control; the T/C (dose: 200.0 mg/kg/injection, schedule: Q01DX009 (ip), vehicle: saline) is 133 and 148 % of control; the T/C under setting [6] was 114 % of control [4 of 6 alive]. The survivor count under setting [6] was 4 of 6.
